In the supplement of paper PMC10032668:
Some of the results follow. The list holds hits alone, and they repeat only in part.

Amino acid sequences for entries named in this document (tags omitted).
DCTN1, Q14203, UniProt Q14203, whole entry: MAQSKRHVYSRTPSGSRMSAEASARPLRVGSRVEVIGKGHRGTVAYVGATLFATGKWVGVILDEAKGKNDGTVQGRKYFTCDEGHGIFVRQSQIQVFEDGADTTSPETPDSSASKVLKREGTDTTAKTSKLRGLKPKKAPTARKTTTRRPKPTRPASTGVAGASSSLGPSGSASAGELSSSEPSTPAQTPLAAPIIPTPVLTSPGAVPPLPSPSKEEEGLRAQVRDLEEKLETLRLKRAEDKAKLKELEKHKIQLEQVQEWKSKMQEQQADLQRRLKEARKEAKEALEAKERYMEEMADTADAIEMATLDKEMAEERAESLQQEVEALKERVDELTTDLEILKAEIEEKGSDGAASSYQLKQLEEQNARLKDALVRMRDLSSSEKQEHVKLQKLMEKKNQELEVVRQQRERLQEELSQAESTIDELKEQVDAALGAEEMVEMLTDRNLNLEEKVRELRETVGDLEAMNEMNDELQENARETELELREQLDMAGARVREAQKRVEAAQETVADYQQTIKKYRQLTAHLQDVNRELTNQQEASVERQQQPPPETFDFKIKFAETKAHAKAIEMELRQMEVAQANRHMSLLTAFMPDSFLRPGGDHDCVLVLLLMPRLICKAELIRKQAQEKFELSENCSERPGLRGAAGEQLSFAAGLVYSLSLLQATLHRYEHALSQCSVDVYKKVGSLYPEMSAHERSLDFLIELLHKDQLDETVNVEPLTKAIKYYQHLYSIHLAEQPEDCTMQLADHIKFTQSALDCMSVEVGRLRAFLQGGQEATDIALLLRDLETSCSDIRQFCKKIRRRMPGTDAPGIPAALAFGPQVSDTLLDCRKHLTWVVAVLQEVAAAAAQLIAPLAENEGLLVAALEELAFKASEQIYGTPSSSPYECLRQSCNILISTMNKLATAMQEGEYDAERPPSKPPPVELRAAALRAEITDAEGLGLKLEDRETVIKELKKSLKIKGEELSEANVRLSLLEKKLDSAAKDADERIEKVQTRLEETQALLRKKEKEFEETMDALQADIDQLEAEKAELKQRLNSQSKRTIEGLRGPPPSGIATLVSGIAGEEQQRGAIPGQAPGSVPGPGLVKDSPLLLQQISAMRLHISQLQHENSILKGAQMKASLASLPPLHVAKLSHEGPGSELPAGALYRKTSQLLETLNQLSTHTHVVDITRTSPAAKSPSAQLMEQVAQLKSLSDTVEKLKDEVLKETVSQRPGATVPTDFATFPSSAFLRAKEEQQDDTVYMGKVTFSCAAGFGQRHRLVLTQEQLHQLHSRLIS
LARP4, Q71RC2, UniProt Q71RC2, whole entry: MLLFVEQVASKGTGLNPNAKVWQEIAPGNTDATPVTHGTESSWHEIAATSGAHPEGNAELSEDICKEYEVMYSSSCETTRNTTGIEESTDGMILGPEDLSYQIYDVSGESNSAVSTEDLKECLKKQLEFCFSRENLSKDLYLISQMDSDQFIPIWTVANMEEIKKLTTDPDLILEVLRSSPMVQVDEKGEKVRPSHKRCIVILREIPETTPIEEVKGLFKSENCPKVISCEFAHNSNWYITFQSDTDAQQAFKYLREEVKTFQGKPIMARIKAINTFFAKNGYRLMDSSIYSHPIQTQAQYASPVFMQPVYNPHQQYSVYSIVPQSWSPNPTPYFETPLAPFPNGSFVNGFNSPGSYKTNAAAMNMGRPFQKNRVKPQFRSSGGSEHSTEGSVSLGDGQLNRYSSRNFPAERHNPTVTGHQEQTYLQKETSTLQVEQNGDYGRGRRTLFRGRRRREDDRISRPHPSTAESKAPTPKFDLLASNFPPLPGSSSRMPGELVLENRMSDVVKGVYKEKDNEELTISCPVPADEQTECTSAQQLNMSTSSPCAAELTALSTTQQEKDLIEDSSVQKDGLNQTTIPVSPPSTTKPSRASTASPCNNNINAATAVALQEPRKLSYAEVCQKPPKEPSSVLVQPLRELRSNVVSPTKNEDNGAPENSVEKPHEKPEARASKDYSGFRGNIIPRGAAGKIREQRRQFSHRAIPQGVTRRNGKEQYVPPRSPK
MTHFD1L, Q6UB35, UniProt Q6UB35, whole entry: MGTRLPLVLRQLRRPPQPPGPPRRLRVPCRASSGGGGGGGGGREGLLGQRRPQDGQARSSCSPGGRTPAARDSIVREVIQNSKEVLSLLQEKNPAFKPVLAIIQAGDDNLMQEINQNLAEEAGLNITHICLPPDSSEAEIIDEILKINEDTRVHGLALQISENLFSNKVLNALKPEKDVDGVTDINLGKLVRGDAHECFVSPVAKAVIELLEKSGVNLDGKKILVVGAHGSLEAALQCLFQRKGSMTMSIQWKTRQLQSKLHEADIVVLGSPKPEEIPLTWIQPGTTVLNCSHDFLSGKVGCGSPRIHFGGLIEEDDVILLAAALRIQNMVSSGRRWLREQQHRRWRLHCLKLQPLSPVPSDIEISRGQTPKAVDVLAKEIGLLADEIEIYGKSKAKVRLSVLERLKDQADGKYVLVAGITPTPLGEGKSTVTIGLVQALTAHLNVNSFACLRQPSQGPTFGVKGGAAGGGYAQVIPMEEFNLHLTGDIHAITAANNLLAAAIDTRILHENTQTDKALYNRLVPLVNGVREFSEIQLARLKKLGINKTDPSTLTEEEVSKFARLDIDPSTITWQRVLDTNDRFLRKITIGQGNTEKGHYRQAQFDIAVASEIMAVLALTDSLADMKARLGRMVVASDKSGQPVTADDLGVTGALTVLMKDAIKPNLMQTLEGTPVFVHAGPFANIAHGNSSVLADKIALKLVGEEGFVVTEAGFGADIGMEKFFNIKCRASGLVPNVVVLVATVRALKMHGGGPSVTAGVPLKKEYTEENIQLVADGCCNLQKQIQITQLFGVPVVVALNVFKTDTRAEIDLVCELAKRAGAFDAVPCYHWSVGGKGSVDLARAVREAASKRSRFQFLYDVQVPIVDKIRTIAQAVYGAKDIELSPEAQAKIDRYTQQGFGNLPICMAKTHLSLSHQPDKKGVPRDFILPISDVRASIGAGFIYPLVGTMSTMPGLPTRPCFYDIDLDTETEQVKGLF
NUP153, P49790, UniProt P49790, whole entry: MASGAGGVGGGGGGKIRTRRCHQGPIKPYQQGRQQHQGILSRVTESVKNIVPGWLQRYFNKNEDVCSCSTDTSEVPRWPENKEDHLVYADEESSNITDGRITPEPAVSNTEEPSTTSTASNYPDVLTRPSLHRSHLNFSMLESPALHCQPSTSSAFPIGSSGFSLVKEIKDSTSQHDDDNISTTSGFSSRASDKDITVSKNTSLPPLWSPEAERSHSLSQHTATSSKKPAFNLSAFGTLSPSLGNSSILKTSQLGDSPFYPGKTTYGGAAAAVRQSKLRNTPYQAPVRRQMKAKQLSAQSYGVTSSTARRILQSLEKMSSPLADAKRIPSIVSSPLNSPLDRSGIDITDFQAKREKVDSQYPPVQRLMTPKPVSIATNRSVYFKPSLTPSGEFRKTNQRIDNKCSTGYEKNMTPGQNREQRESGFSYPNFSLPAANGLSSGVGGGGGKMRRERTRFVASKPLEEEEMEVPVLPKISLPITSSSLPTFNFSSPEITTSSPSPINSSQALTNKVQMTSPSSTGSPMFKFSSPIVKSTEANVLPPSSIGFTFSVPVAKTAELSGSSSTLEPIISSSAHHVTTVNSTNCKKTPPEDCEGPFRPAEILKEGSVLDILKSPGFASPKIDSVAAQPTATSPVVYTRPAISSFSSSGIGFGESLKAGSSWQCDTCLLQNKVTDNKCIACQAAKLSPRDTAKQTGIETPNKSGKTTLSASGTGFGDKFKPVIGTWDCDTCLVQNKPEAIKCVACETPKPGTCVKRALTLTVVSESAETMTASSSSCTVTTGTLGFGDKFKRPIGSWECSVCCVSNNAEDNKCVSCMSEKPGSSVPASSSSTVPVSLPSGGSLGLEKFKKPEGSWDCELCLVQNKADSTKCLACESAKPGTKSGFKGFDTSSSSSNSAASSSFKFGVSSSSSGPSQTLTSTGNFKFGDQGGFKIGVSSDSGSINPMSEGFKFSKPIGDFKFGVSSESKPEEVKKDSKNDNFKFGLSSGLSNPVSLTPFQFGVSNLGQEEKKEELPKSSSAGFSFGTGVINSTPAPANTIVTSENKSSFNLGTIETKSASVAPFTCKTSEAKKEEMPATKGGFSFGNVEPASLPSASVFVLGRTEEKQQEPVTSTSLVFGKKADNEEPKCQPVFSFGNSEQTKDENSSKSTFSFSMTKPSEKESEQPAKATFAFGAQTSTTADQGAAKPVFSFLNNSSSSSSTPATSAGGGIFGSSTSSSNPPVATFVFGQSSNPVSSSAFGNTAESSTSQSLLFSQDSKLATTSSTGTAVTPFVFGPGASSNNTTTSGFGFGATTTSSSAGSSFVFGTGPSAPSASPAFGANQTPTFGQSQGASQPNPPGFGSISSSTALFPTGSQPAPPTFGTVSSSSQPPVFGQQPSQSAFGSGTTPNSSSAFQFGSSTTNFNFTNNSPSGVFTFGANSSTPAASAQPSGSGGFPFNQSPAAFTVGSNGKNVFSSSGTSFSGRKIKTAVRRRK
TPX2, Q9ULW0, UniProt Q9ULW0, whole entry: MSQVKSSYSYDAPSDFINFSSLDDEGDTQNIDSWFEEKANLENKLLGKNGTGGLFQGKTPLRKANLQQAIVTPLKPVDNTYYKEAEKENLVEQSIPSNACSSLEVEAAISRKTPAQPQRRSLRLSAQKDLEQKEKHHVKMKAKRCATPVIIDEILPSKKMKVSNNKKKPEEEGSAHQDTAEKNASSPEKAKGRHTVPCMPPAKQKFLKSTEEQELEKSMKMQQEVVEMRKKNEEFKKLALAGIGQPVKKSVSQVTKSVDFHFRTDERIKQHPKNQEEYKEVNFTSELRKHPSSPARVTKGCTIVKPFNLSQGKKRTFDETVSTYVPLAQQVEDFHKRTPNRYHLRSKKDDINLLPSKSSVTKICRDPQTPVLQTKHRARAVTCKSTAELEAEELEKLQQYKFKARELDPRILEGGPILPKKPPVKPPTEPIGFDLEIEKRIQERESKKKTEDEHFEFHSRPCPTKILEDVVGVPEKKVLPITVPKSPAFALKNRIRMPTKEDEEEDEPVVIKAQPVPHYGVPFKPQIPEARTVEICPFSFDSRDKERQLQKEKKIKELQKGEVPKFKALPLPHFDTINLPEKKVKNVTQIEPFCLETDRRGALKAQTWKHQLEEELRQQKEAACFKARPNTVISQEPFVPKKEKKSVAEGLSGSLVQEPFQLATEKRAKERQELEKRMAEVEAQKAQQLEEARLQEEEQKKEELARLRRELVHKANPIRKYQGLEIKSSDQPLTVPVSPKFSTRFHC
ADARB2, Q9NS39, UniProt Q9NS39, whole entry: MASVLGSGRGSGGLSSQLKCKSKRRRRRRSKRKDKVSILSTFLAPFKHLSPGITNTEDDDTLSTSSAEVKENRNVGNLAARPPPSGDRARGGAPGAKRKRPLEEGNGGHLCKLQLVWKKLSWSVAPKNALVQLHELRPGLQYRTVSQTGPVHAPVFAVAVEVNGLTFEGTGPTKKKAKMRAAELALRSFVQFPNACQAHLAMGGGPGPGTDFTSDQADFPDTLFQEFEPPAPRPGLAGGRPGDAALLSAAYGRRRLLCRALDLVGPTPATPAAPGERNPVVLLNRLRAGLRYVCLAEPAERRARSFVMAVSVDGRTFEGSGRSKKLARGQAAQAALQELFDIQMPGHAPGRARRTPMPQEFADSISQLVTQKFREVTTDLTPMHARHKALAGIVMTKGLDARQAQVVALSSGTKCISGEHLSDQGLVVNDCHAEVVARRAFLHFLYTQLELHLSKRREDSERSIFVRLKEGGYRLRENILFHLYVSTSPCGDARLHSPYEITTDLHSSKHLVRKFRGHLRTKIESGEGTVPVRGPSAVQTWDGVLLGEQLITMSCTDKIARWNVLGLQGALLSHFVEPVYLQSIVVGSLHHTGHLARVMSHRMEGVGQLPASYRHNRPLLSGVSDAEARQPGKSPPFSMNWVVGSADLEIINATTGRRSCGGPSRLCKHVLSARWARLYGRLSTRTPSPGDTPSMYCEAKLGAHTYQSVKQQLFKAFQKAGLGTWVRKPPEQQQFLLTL
CST2, P09228, UniProt P09228, whole entry: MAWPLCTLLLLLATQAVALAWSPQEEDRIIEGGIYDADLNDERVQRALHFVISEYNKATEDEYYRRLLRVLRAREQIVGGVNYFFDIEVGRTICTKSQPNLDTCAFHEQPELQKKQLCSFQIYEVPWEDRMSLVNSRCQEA
TUBB8, Q3ZCM7, UniProt Q3ZCM7, whole entry: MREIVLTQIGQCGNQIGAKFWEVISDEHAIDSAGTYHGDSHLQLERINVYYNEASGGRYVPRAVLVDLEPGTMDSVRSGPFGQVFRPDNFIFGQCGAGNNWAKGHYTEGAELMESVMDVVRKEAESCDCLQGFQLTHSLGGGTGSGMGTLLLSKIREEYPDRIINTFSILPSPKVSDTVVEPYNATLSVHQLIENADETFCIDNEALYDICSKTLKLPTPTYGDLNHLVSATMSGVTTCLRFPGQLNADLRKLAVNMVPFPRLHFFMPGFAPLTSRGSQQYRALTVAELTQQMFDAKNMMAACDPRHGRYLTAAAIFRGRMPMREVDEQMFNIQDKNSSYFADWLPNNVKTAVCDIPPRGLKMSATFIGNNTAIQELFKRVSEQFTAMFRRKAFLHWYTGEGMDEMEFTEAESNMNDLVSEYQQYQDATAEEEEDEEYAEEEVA

Columns and labels:
Assay in all cases: PRISMA enrichment of interactor (LFQ) in peptide spot vs all other peptide spots (log2 fold change); higher = stronger / more specific binding of the interactor to the peptide
ADAR, P55265 = target: ADAR, P55265
Method: (§1)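 PRISMA: 221 full-length sORF-encoded peptides (3-15 aa), plus SOS1/GLUT1 control peptides, were spot-synthesized on cellulose membranes in triplicate. Membranes were incubated with HEK293T lysate, and bound proteins were identified by LC-MS/MS with LFQ. Enrichment is the log2 fold change versus all other peptide spots; only significant interactors are listed (cutoff c=6, x0=2.8).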

ATXN2L, Q8WWM7 = target: ATXN2L, Q8WWM7
Method: as §1

CCAR1, Q8IX12 = target: CCAR1, Q8IX12
Method: as §1

CLPX, O76031 = target: CLPX, O76031
Method: as §1

DCTN1, Q14203 = target: DCTN1, Q14203
Method: as §1

DMD, P11532 = target: DMD, P11532
Method: as §1

DNAJB11, Q9UBS4 = target: DNAJB11, Q9UBS4
Method: as §1

DUSP3, P51452 = target: DUSP3, P51452
Method: as §1

HCFC1, P51610 = target: HCFC1, P51610
Method: as §1

ISCU, Q9H1K1 = target: ISCU, Q9H1K1
Method: as §1

KIF22, Q14807 = target: KIF22, Q14807
Method: as §1

LARP4, Q71RC2 = target: LARP4, Q71RC2
Method: as §1

MCU, Q8NE86 = target: MCU, Q8NE86
Method: as §1

MTHFD1L, Q6UB35 = target: MTHFD1L, Q6UB35
Method: as §1

NAMPT, P43490 = target: NAMPT, P43490
Method: as §1

NUP153, P49790 = target: NUP153, P49790
Method: as §1

NXF1, Q9UBU9 = target: NXF1, Q9UBU9
Method: as §1

PICALM, Q13492 = target: PICALM, Q13492
Method: as §1

PINX1, Q96BK5 = target: PINX1, Q96BK5
Method: as §1

POLDIP3, Q9BY77 = target: POLDIP3, Q9BY77
Method: as §1

PRRC2B, Q5JSZ5 = target: PRRC2B, Q5JSZ5
Method: as §1

PRRC2C, Q9Y520 = target: PRRC2C, Q9Y520
Method: as §1

PUM1, Q14671 = target: PUM1, Q14671
Method: as §1

QRICH1, Q2TAL8 = target: QRICH1, Q2TAL8
Method: as §1

RACGAP1, Q9H0H5 = target: RACGAP1, Q9H0H5
Method: as §1

RBM14, Q96PK6 = target: RBM14, Q96PK6
Method: as §1

SCPEP1, Q9HB40 = target: SCPEP1, Q9HB40
Method: as §1

SDF2L1, Q9HCN8 = target: SDF2L1, Q9HCN8
Method: as §1

TBL1XR1, Q9BZK7 = target: TBL1XR1, Q9BZK7
Method: as §1

TMEM201, Q5SNT2 = target: TMEM201, Q5SNT2
Method: as §1

TPX2, Q9ULW0 = target: TPX2, Q9ULW0
Method: as §1

UBAP2L, Q14157 = target: UBAP2L, Q14157
Method: as §1

UMPS, P11172 = target: UMPS, P11172
Method: as §1

UTP14A, Q9BVJ6 = target: UTP14A, Q9BVJ6
Method: as §1

XRN1, Q8IZH2 = target: XRN1, Q8IZH2
Method: as §1

ZNF281, Q9Y2X9 = target: ZNF281, Q9Y2X9
Method: as §1

ZNF638, Q14966 = target: ZNF638, Q14966
Method: as §1

ADARB2, Q9NS39 = target: ADARB2, Q9NS39
Method: as §1

AOC3, Q16853 = target: AOC3, Q16853
Method: as §1

CST2, P09228 = target: CST2, P09228
Method: as §1

EXOSC1, Q9Y3B2 = target: EXOSC1, Q9Y3B2
Method: as §1

FARSB, Q9NSD9 = target: FARSB, Q9NSD9
Method: as §1

HHAT, Q5VTY9 = target: HHAT, Q5VTY9
Method: as §1

HIBADH, P31937 = target: HIBADH, P31937
Method: as §1

RBM6, P78332 = target: RBM6, P78332
Method: as §1

TUBB8, Q3ZCM7 = target: TUBB8, Q3ZCM7
Method: as §1

In the case of MLDLIRIYF [GATA4], the “PRISMA enrichment of interactor (log2)” value (ADAR, P55265) is reported as 4.94, the “PRISMA enrichment of interactor (log2)” value (ATXN2L, Q8WWM7) is reported as 5.45 and the “PRISMA enrichment of interactor (log2)” value (CCAR1, Q8IX12) is reported as 7.4. The “PRISMA enrichment of interactor (log2)” value (CLPX, O76031) was 5.58, the “PRISMA enrichment of interactor (log2)” value (DCTN1, Q14203) was 6.12 and the “PRISMA enrichment of interactor (log2)” value (DMD, P11532) was 7.71. The “PRISMA enrichment of interactor (log2)” value (DNAJB11, Q9UBS4) was 6.32, the “PRISMA enrichment of interactor (log2)” value (DUSP3, P51452) was 5.37 and the “PRISMA enrichment of interactor (log2)” value (HCFC1, P51610) was 6.14. For the same binder, the “PRISMA enrichment of interactor (log2)” value (ISCU, Q9H1K1) was 5.41, the “PRISMA enrichment of interactor (log2)” value (KIF22, Q14807) was 4.19 and the “PRISMA enrichment of interactor (log2)” value (LARP4, Q71RC2) was 4.53. For the same binder, the “PRISMA enrichment of interactor (log2)” value (MCU, Q8NE86) was 7.17, the “PRISMA enrichment of interactor (log2)” value (MTHFD1L, Q6UB35) was 4.82 and the “PRISMA enrichment of interactor (log2)” value (NAMPT, P43490) was 5.12. For the same binder, the “PRISMA enrichment of interactor (log2)” value (NUP153, P49790) was 7.49, the “PRISMA enrichment of interactor (log2)” value (NXF1, Q9UBU9) was 5.69 and the “PRISMA enrichment of interactor (log2)” value (PICALM, Q13492) was 5.75. The “PRISMA enrichment of interactor (log2)” value (PINX1, Q96BK5) was 6.42, the “PRISMA enrichment of interactor (log2)” value (POLDIP3, Q9BY77) was 5.5 and the “PRISMA enrichment of interactor (log2)” value (PRRC2B, Q5JSZ5) was 4.46. The “PRISMA enrichment of interactor (log2)” value (PRRC2C, Q9Y520) was 4.74, the “PRISMA enrichment of interactor (log2)” value (PUM1, Q14671) was 5.38 and the “PRISMA enrichment of interactor (log2)” value (QRICH1, Q2TAL8) was 5.1. For the same binder, the “PRISMA enrichment of interactor (log2)” value (RACGAP1, Q9H0H5) was 4.11, the “PRISMA enrichment of interactor (log2)” value (RBM14, Q96PK6) was 5.98 and the “PRISMA enrichment of interactor (log2)” value (SCPEP1, Q9HB40) was 6.12. The “PRISMA enrichment of interactor (log2)” value (SDF2L1, Q9HCN8) was 5.12, the “PRISMA enrichment of interactor (log2)” value (TBL1XR1, Q9BZK7) was 4.76 and the “PRISMA enrichment of interactor (log2)” value (TMEM201, Q5SNT2) was 5.11. The “PRISMA enrichment of interactor (log2)” value (TPX2, Q9ULW0) was 5.66, the “PRISMA enrichment of interactor (log2)” value (UBAP2L, Q14157) was 5.24 and the “PRISMA enrichment of interactor (log2)” value (UMPS, P11172) was 5.92. For the same binder, the “PRISMA enrichment of interactor (log2)” value (UTP14A, Q9BVJ6) was 5.07, the “PRISMA enrichment of interactor (log2)” value (XRN1, Q8IZH2) was 4.74 and the “PRISMA enrichment of interactor (log2)” value (ZNF281, Q9Y2X9) was 3.97. The “PRISMA enrichment of interactor (log2)” value (ZNF638, Q14966) was 6.27.

For MKMSVSLSGGRRLL [HIPK3], the “PRISMA enrichment of interactor (log2)” value (ADARB2, Q9NS39) was 9.05, the “PRISMA enrichment of interactor (log2)” value (AOC3, Q16853) was 7.06 and the “PRISMA enrichment of interactor (log2)” value (CST2, P09228) was 8.07. The “PRISMA enrichment of interactor (log2)” value (EXOSC1, Q9Y3B2) was 8.15, the “PRISMA enrichment of interactor (log2)” value (FARSB, Q9NSD9) was 5.49 and the “PRISMA enrichment of interactor (log2)” value (HHAT, Q5VTY9) was 6.79. The “PRISMA enrichment of interactor (log2)” value (HIBADH, P31937) was 4.69, the “PRISMA enrichment of interactor (log2)” value (RBM6, P78332) was 4.18 and the “PRISMA enrichment of interactor (log2)” value (TUBB8, Q3ZCM7) was 5.7.
